# The other results are listed elsewhere or left out.
# Sequences of proteins named here, by UniProt entry; tags and fusion partners are left off. A change or cut given only in a name is not applied to a line headed by its entry.
# UniProt P19971: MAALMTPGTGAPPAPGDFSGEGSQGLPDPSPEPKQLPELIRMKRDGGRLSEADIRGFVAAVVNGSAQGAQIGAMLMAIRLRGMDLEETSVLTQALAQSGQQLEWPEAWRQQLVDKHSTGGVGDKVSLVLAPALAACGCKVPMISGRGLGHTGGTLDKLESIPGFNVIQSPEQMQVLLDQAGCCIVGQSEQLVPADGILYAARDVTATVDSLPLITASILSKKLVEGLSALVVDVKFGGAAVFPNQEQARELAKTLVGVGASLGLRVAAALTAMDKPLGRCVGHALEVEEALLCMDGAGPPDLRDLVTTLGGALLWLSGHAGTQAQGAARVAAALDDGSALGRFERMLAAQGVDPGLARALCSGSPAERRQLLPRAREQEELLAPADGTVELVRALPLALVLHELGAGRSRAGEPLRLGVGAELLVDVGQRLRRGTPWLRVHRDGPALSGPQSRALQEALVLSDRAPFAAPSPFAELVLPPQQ
# UniProt Q9NNW7, whole entry, looked up: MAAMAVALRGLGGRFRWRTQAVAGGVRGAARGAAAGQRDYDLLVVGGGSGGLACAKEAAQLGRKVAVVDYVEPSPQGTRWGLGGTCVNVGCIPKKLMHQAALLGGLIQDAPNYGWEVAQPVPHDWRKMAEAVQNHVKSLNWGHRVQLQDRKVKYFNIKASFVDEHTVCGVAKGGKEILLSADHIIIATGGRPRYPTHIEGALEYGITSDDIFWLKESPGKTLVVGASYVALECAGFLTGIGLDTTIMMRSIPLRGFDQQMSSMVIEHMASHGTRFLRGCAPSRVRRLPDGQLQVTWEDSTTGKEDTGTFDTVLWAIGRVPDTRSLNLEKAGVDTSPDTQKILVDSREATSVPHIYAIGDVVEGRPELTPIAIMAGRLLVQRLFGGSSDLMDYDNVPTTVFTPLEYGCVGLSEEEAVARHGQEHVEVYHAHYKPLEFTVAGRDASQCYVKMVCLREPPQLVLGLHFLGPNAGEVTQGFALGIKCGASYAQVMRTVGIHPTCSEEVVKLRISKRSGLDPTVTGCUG
# UniProt O15042: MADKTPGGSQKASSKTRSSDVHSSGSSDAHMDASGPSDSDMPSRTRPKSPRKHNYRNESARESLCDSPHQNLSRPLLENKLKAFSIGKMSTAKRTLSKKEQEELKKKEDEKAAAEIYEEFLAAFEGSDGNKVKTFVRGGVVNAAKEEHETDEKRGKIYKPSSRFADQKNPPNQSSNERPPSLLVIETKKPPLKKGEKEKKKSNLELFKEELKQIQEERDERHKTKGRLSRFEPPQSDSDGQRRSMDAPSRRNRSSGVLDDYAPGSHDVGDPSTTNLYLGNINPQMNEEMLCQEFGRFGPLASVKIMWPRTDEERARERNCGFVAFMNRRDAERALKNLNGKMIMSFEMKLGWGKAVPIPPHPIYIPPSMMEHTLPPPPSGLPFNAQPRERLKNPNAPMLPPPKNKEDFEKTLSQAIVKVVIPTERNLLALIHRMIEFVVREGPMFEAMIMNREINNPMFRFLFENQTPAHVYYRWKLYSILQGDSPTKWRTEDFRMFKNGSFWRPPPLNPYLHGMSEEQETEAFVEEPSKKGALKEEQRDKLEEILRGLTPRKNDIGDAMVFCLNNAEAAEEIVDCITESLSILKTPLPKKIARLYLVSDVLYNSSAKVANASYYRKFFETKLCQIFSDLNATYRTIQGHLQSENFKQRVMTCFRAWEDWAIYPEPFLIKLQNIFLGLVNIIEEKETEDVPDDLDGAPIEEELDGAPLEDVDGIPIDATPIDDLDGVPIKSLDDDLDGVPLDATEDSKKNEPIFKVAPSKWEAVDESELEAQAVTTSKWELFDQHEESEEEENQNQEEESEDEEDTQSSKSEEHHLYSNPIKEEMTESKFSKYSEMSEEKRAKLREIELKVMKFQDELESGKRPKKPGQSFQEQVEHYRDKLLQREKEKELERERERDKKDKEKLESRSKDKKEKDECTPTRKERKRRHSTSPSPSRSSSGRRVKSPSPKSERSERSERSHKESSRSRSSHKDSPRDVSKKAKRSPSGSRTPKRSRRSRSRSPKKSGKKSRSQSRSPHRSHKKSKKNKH
# UniProt P62253: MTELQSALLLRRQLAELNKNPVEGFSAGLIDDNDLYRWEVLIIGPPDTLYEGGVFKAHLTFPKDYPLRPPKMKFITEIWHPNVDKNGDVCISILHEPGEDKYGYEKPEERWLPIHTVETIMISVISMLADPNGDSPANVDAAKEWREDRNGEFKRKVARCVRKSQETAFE
# UniProt P26368, whole entry, looked up: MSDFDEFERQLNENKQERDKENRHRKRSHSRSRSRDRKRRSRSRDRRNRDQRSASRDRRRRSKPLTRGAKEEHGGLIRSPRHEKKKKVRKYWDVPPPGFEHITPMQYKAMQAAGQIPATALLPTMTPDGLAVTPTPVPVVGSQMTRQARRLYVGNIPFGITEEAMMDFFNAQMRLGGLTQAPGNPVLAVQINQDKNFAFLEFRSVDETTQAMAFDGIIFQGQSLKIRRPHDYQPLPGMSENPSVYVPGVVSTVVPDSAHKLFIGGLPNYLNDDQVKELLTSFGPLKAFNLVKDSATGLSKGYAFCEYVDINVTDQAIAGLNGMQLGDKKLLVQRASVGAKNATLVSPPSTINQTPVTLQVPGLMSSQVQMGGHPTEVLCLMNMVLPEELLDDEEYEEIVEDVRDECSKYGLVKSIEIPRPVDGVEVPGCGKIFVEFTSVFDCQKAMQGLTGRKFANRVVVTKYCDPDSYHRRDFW
# UniProt P61081: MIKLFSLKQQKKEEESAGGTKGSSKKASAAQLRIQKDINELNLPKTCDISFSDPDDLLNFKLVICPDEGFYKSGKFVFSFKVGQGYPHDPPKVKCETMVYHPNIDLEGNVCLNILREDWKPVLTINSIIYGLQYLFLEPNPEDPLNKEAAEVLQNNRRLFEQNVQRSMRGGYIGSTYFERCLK
# UniProt Q3KQV9: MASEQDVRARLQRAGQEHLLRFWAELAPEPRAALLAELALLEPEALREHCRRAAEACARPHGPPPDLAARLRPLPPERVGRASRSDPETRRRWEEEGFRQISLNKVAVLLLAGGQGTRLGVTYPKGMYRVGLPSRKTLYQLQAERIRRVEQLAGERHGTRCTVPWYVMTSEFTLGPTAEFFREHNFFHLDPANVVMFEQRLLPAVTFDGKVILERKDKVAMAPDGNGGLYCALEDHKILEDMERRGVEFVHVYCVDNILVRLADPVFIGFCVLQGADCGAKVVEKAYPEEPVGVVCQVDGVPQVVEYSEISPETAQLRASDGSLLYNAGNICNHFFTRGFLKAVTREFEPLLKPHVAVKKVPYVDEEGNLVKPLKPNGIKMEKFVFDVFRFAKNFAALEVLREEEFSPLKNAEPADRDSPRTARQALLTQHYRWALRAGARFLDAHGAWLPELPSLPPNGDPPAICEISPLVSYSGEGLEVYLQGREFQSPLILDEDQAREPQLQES
# UniProt O95155, whole entry, looked up: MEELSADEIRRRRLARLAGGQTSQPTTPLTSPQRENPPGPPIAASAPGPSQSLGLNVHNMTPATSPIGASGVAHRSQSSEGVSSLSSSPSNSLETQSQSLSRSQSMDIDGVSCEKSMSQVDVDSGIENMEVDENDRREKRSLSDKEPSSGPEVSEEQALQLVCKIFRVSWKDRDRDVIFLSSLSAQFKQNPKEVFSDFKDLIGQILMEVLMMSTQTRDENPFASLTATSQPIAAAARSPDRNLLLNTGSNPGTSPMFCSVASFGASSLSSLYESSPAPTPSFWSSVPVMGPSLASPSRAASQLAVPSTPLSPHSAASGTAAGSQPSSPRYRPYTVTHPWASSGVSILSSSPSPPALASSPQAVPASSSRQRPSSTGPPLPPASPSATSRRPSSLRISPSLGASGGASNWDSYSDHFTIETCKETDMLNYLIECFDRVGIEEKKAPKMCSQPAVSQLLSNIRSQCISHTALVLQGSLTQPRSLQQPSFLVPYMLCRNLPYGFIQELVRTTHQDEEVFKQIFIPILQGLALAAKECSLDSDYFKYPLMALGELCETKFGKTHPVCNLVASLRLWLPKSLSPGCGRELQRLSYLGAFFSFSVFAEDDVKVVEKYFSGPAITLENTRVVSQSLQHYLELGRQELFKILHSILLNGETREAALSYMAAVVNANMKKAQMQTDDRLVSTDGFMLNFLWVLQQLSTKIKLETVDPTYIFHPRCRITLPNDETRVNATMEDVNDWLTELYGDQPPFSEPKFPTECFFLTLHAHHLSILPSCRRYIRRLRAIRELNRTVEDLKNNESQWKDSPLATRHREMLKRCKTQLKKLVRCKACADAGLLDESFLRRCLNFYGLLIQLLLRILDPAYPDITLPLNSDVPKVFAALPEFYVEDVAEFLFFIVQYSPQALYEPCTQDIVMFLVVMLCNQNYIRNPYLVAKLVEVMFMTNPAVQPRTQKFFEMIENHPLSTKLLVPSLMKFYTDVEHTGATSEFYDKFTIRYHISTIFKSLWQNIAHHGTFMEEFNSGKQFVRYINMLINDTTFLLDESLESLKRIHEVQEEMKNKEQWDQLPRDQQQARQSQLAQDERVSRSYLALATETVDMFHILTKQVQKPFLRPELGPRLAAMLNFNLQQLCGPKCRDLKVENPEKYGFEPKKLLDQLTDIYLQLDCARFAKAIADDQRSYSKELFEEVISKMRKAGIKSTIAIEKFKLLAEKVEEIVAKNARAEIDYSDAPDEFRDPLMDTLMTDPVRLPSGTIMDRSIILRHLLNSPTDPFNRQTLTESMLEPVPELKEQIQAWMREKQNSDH
# UniProt O43396: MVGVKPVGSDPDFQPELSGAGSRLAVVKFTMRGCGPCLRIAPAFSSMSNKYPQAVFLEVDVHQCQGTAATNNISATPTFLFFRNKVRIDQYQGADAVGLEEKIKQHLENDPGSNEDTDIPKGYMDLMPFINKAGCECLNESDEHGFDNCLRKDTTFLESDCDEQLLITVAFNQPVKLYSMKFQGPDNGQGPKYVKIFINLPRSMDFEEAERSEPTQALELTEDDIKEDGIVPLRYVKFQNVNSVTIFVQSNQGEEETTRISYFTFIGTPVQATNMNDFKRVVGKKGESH
# UniProt P41226: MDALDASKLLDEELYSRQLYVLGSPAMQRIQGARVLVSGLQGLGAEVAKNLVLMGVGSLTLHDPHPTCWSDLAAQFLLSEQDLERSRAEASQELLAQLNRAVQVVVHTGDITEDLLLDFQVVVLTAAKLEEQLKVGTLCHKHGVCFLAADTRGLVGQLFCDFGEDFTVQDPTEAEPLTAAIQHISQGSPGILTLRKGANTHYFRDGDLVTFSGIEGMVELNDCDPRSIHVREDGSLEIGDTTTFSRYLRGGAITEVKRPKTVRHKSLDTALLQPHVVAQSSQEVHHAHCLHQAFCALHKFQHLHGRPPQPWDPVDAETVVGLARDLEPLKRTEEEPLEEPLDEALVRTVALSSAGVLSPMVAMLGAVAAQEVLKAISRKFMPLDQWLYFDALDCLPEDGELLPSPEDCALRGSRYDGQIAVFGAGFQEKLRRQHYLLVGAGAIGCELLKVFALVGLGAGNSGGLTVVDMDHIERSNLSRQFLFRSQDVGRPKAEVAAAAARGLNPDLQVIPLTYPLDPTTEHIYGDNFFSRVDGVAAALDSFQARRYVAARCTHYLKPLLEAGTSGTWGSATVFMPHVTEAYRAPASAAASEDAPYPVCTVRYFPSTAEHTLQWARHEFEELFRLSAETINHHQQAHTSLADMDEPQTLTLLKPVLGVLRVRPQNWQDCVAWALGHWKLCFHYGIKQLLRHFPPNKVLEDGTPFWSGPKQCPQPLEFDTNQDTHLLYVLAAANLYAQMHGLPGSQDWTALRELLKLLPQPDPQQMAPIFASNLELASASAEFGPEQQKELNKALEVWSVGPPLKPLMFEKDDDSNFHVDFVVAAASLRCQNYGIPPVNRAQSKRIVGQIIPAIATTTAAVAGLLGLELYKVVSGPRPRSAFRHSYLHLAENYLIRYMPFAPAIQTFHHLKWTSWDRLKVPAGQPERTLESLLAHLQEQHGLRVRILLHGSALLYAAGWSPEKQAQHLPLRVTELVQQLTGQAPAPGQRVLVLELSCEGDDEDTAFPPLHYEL
# UniProt Q2T9J0: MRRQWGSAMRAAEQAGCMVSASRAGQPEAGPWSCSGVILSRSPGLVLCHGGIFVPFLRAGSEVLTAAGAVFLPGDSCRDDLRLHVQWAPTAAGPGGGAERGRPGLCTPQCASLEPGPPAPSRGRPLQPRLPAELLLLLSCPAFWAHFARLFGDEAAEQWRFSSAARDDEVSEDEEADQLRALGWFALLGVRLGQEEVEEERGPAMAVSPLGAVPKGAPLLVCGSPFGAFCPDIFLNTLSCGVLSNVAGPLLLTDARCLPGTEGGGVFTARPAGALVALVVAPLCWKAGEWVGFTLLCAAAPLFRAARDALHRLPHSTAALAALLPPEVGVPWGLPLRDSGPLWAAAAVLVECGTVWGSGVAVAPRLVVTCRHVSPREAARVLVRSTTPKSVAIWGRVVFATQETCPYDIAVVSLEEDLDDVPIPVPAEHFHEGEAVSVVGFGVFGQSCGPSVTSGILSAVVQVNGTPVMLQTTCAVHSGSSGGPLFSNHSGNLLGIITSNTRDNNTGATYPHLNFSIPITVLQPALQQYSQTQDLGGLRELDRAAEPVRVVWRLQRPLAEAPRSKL
# Compound: Cc1cc(ccc1-c1ccccc1)C(=O)N1CCCN(CC1)C(=O)CCl [compound 10]
# Assay: probe-labelled cysteine peptide fold change vs DMSO (competition) (log2 fold change); higher = less target engagement (more negative = stronger competition)
# Settings: THP-1, incubation time: 4 h
# 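Also: competitive profiling in live THP-1 cells: cysteine peptides tagged with an iodoacetamide desthiobiotin (IA-DTB) probe, intensity after compound treatment relative to DMSO-treated cells.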
Target,probe-labelled cysteine peptide fold change (10 µM),probe-labelled cysteine peptide fold change (50 µM)
UBA2_Q9UBT2_158+161_GVTECYECHPKPTQR (UniProt Q9UBT2),0.136,-0.329
UBA6_A0AVT1_455_ACIGDTLCQK,-0.0288,0.0705
TXNRD1_Q16881_339_EYCISSDDLFSLPYCPGK (UniProt Q16881),0.697,0.594
UBE3D_Q7Z6J8_330_VLYQPCIK (UniProt Q7Z6J8),-0.0259,-0.056
UBN1_Q9NPG3_765_ELSCQAPLNK (UniProt Q9NPG3),-0.169,-0.168
TYMP_P19971_293_CVGHALEVEEALLCMDGAGPPDLR (UniProt P19971),0.385,0.197
UBL4A_P11441_13_ECSLQVPEDELVSTLK (UniProt P11441),0.0566,0.12
UBR4_Q5T4S7_4146_QAACTIVEALATIPSRK (UniProt Q5T4S7),-0.0222,0.0202
UBR1_Q8IWV7_1197+1200_IHVDLFDLESGEYLCPLCK (UniProt Q8IWV7),-0.221,-0.351
UBE2I_P63279_43_NPDGTMNLMNWECAIPGKK (UniProt P63279),0.0841,-0.18
UBLCP1_Q8WVY7_154_SCAETGVELMR (UniProt Q8WVY7),0.163,0.308
UBA5_Q9GZZ9_181_ISNGGLEEGKPVDLVLSCVDNFEAR (UniProt Q9GZZ9),0.0224,-0.168
UBA2_Q9UBT2_30_VLVVGAGGIGCELLK (UniProt Q9UBT2),0.11,0.0878
TXNRD2_Q9NNW7_500_TVGIHPTCSEEVVK (UniProt Q9NNW7),0.0778,0.134
UBR7_Q8N806_182_HLGAIPPESGDFQEMVCQACMK (UniProt Q8N806),0.0137,-0.384
UBE2O_Q9C0C9_585_SNDLFPVHHLDNNEFCPGDFVVDKR (UniProt Q9C0C9),-0.0569,-0.183
UBR7_Q8N806_155_RPYPDPEDEIPDEMIQCVVCEDWFHGR (UniProt Q8N806),0.0312,0.0116
UBE3D_Q7Z6J8_52_TPEGCTEIQLPAEVR (UniProt Q7Z6J8),0.0793,0.147
UBR5_O95071_1291_QTVEHCQYRPPR (UniProt O95071),0.0471,0.0177
UBE2I_P63279_75_CKFEPPLFHPNVYPSGTVCLSILEEDK (UniProt P63279),0.165,0.175
UBA1_P22314_632_SIPICTLK (UniProt P22314),-0.0921,-0.282
U2SURP_O15042_918_EKDECTPTRK (UniProt O15042),-0.0489,0.231

Target,probe-labelled cysteine peptide fold change (10 µM),probe-labelled cysteine peptide fold change (50 µM)
UBR5_O95071_1093_LLCDSVVLQPYLR (UniProt O95071),-0.00562,0.137
UBE2G1_P62253_90_NGDVCISILHEPGEDK (UniProt P62253),0.0065,0.131
UBASH3B_Q8TF42_240_LGCDWVATIFSR (UniProt Q8TF42),0.204,0.257
UBN2_Q6ZU65_515_SGVYSHLEAFVPCNK (UniProt Q6ZU65),0.14,-0.0231
UBR5_O95071_769_YCIFDLATGK (UniProt O95071),0.227,0.176
U2AF2_P26368_464_YCDPDSYHR (UniProt P26368),0.298,0.1
UBE2M_P61081_47_TCDISFSDPDDLLNFK (UniProt P61081),0.0206,-0.00247
UBAP2_Q5T6F2_78_NQDECIVALHDCNGDVNK (UniProt Q5T6F2),-0.0704,-0.0882
UAP1L1_Q3KQV9_57_AAEACARPHGPPPDLAAR (UniProt Q3KQV9),-0.0822,-0.0801
UBAP2_Q5T6F2_71+78_NQDECIVALHDCNGDVNK (UniProt Q5T6F2),0.23,0.163
UBA6_A0AVT1_156_YQCVVLTEMK,0.126,0.104
UBE4B_O95155_448_MCSQPAVSQLLSNIR (UniProt O95155),-0.215,-0.184
TXNL1_O43396_149_AGCECLNESDEHGFDNCLR (UniProt O43396),-0.202,0.0846
TXNL1_O43396_135+149_AGCECLNESDEHGFDNCLR (UniProt O43396),-0.443,-0.546
UBA7_P41226_223_DGDLVTFSGIEGMVELNDCDPR (UniProt P41226),0.0341,0.101
UBE2O_Q9C0C9_375_NCAQGEGSMAK (UniProt Q9C0C9),-0.0634,-0.156
UBE4B_O95155_534_ECSLDSDYFK (UniProt O95155),-0.0831,0.0927
TYK2_P29597_936_ADCGPQHR (UniProt P29597),-0.0616,-0.288
UBE2G2_P60604_75_FTCEMFHPNIYPDGR (UniProt P60604),-0.0589,-0.214
TXNRD2_Q9NNW7_168_ASFVDEHTVCGVAK (UniProt Q9NNW7),-0.0313,0.118
UAP1_Q16222_293_TNPTEPVGVVCR (UniProt Q16222),0.0439,-0.0283
UBL5_Q9BZL1_18_CNTDDTIGDLKK (UniProt Q9BZL1),0.169,-0.92

# An excerpt of these results, with tabs.
Target	probe-labelled cysteine peptide fold change (10 µM)	probe-labelled cysteine peptide fold change (50 µM)
UBR7_Q8N806_182_HLGAIPPESGDFQEMVCQACMK (UniProt Q8N806)	0.0137	-0.384
UBE2O_Q9C0C9_585_SNDLFPVHHLDNNEFCPGDFVVDKR (UniProt Q9C0C9)	-0.0569	-0.183
UBR7_Q8N806_155_RPYPDPEDEIPDEMIQCVVCEDWFHGR (UniProt Q8N806)	0.0312	0.0116
UBE3D_Q7Z6J8_52_TPEGCTEIQLPAEVR (UniProt Q7Z6J8)	0.0793	0.147
UBR5_O95071_1291_QTVEHCQYRPPR (UniProt O95071)	0.0471	0.0177
UBE2I_P63279_75_CKFEPPLFHPNVYPSGTVCLSILEEDK (UniProt P63279)	0.165	0.175
UBA1_P22314_632_SIPICTLK (UniProt P22314)	-0.0921	-0.282
U2SURP_O15042_918_EKDECTPTRK (UniProt O15042)	-0.0489	0.231
UBR5_O95071_1093_LLCDSVVLQPYLR (UniProt O95071)	-0.00562	0.137
UBE2G1_P62253_90_NGDVCISILHEPGEDK (UniProt P62253)	0.0065	0.131
UBASH3B_Q8TF42_240_LGCDWVATIFSR (UniProt Q8TF42)	0.204	0.257
UBN2_Q6ZU65_515_SGVYSHLEAFVPCNK (UniProt Q6ZU65)	0.14	-0.0231
UBR5_O95071_769_YCIFDLATGK (UniProt O95071)	0.227	0.176
U2AF2_P26368_464_YCDPDSYHR (UniProt P26368)	0.298	0.1
UBE2M_P61081_47_TCDISFSDPDDLLNFK (UniProt P61081)	0.0206	-0.00247
UBAP2_Q5T6F2_78_NQDECIVALHDCNGDVNK (UniProt Q5T6F2)	-0.0704	-0.0882
UAP1L1_Q3KQV9_57_AAEACARPHGPPPDLAAR (UniProt Q3KQV9)	-0.0822	-0.0801
UBAP2_Q5T6F2_71+78_NQDECIVALHDCNGDVNK (UniProt Q5T6F2)	0.23	0.163
UBA6_A0AVT1_156_YQCVVLTEMK	0.126	0.104
UBE4B_O95155_448_MCSQPAVSQLLSNIR (UniProt O95155)	-0.215	-0.184
TXNL1_O43396_149_AGCECLNESDEHGFDNCLR (UniProt O43396)	-0.202	0.0846
TXNL1_O43396_135+149_AGCECLNESDEHGFDNCLR (UniProt O43396)	-0.443	-0.546
UBA7_P41226_223_DGDLVTFSGIEGMVELNDCDPR (UniProt P41226)	0.0341	0.101
UBE2O_Q9C0C9_375_NCAQGEGSMAK (UniProt Q9C0C9)	-0.0634	-0.156

# Further results

Target,probe-labelled cysteine peptide fold change (10 µM),probe-labelled cysteine peptide fold change (50 µM)
UBA52_P62987_115_CGHTNNLRPK (UniProt P62987),-0.0567,-0.125
TYSND1_Q2T9J0_17_AAEQAGCMVSASR (UniProt Q2T9J0),0.0109,0.0758
UBE3A_Q05086_480_FSFMTCPFILNAVTK (UniProt Q05086),-0.0742,0.0689
TXNL4B_Q9NX01_38_FGRDEDPVCLQLDDILSK (UniProt Q9NX01),-0.132,-0.00756
UACA_Q9BZF9_980_ELDTIQECIK (UniProt Q9BZF9),-0.247,-0.59
UBA1_P22314_711_SLVLQRPQTWADCVTWACHHWHTQYSNNIR (UniProt P22314),-0.12,0.238
UBR1_Q8IWV7_1369_ITCPQVLIQK (UniProt Q8IWV7),-0.179,0.281
TXNL1_O43396_135_AGCECLNESDEHGFDNCLR (UniProt O43396),-0.407,-0.487
UBE2K_P61086_170_KIENLCAMGFDR (UniProt P61086),0.0906,-0.102
TYSND1_Q2T9J0_48_SPGLVLCHGGIFVPFLR (UniProt Q2T9J0),-0.107,0.096
UBR4_Q5T4S7_1970_EDYLAVCGLK (UniProt Q5T4S7),0.0724,0.0097
UBE2D3_P61077_111_VLLSICSLLCDPNPDDPLVPEIAR (UniProt P61077),-0.661,0.456
UBA3_Q8TBC4_82_VLVIGAGGLGCELLK (UniProt Q8TBC4),0.0482,-0.259
UAP1L1_Q3KQV9_271+278_LADPVFIGFCVLQGADCGAK (UniProt Q3KQV9),0.157,-0.0665
UBR4_Q5T4S7_3872_CYGCASAVTEHCITLLR (UniProt Q5T4S7),0.0168,0.3
UBR2_Q8IWV8_127_DCAVDPTCVLCMECFLGSIHR (UniProt Q8IWV8),-0.0675,-0.0727
UBA1_P22314_234_DNPGVVTCLDEAR (UniProt P22314),-0.225,0.0936
UBE2A_P49459_88_MFHPNVYADGSICLDILQNR (UniProt P49459),-0.288,-0.114
UBAP2_Q5T6F2_104_AINILLEGNSDTTSWETVGCK (UniProt Q5T6F2),-0.000255,-0.128
UBE3B_Q7Z3V4_311_DVCESLEGCHTLCLMGNLLHLGSLSPR (UniProt Q7Z3V4),-0.115,-0.154
UBA6_A0AVT1_473_LQNLNIFLVGCGAIGCEMLK,-0.2,0.0449
UBR5_O95071_691_FPGTSSNTNCQNSSGPDADPSSLLQDCR (UniProt O95071),-0.000612,-0.405

Target,probe-labelled cysteine peptide fold change (10 µM),probe-labelled cysteine peptide fold change (50 µM)
U2AF2_P26368_442_IFVEFTSVFDCQK (UniProt P26368),0.0266,0.118
TYMP_P19971_138_VSLVLAPALAACGCK (UniProt P19971),0.124,-0.31
UBR4_Q5T4S7_4146_QAACTIVEALATIPSR (UniProt Q5T4S7),-0.0407,0.0036
UBR7_Q8N806_155+158_RPYPDPEDEIPDEMIQCVVCEDWFHGR (UniProt Q8N806),-0.195,-1.14
UBR3_Q6ZT12_288_DLTSGLGENACVK (UniProt Q6ZT12),-0.298,-0.751
UBR4_Q5T4S7_1724_EDGSCLALVK (UniProt Q5T4S7),0.0487,-0.127
TXN_P10599_32+35_LVVVDFSATWCGPCK (UniProt P10599),-0.879,-0.645
UBASH3B_Q8TF42_135_AHNIFPHITLCQFFMCEDSK (UniProt Q8TF42),-0.172,0.153
UBA1_P22314_278_VLGPYTFSICDTSNFSDYIR (UniProt P22314),0.119,0.115
TXNRD2_Q9NNW7_446_DASQCYVK (UniProt Q9NNW7),0.198,0.101
UBR4_Q5T4S7_4642_FKPYCNFDK (UniProt Q5T4S7),-0.0874,0.238
TXN_P10599_73_CMPTFQFFK (UniProt P10599),-0.261,-0.457
UBAP1_Q9NZ09_243_ATLDFKPLHKPNGFITLPQLGNCEK (UniProt Q9NZ09),-0.239,-1.36
UBASH3B_Q8TF42_367_RPYEDQGLGETTPLTIICQPMQPLR (UniProt Q8TF42),-0.248,-0.477
UBA7_P41226_445_QHYLLVGAGAIGCELLK (UniProt P41226),-0.156,-0.00376
UBA2_Q9UBT2_185_NTPSEPIHCIVWAK (UniProt Q9UBT2),-0.00257,0.174
UBR4_Q5T4S7_4890_QQGYSTVSHFNIVHYDCHLAAVR (UniProt Q5T4S7),-0.0432,0.111
UBA6_A0AVT1_174_KINDFCR,0.103,0.0143
UAP1L1_Q3KQV9_50_AALLAELALLEPEALREHCR (UniProt Q3KQV9),-0.0419,-0.0103

# — the supplement of paper PMC12067093, “Discovery and optimisation of a covalent ligand for TRIM25 and its application to targeted protein ubiquitination” (Chemical Science, 2025)
